# Measurements published in PubChem BioAssay AID485318 (Broad Institute, 2010).
# Chains of the proteins cited; added tags and fusions are not shown. Lines headed by an entry give the natural chain unless they say otherwise; changes in a name come on top.
# UniProt O15379: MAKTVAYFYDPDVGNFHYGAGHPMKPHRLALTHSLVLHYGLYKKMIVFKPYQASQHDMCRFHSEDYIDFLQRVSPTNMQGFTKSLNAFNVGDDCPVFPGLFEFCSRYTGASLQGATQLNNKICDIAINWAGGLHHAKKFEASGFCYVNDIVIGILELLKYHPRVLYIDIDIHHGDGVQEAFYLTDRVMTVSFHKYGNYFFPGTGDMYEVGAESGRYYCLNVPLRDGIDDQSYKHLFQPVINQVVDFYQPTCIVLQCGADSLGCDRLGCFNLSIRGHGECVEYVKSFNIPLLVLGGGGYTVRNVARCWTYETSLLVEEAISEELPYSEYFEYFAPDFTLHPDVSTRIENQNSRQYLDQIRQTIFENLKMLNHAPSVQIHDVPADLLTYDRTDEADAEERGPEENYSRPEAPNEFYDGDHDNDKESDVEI
# Hit rate of the full screen: of about 1,400 compounds, fewer than 10 were called active.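 The calls were made as follows: active = fluorescence-lowering compounds whose fitted half-maximal concentration is at or below ten times the highest valid dose tested; inconclusive = flat curve at 30 to 70% inhibition, or poor fit; inactive = the rest.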 The list shows a part of the results.
# Target: Histone deacetylase 3 (Homo sapiens) (UniProt O15379)
# Assay: inhibition of human HDAC3 enzymatic activity – biochemical, fluorescence, cherry-picked samples, counter-screen for JMJD2C/GASC1 demethylase inhibitor project, dose response (AID 485318);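 also: enzyme preincubated with compound before substrate and trypsin were added; 0% = neutral control wells and -100% = SAHA positive control wells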
# Conditions: recombinant HDAC3, fluorogenic peptide/trypsin coupled; at 12 µM (top of the series)
row,Structure (SMILES),"activity change, negative = inhibition"
1,CC(C)(C)c1ccc(OCCC(=O)NC2=NCCS2)cc1,inactive: -0.0775%
2,Cc1ccccc1CNc1nnnn1C,inactive: 1.02%
3,COc1cccc(C(C[N+](=O)[O-])c2c(C)[nH]n(-c3ccccc3)c2=O)c1 (stereo not given),inactive: 0.217%
4,Cc1cc(C)nc(NCc2ccc(Cl)cc2)n1,inactive: -0.249%
5,Cc1nn(Cc2ccc([N+](=O)[O-])cc2)c(=O)n1-c1cccc(Cl)c1,inactive: -0.473%
6,COc1cccc(Oc2nccc(N(C)C)c2C#N)c1,inactive: -0.661%
7,O=C(Cn1cnc2c(OCc3ccccc3)ncnc21)NCCCc1ccccc1,inactive: -0.642%
8,Cc1cccnc1Nc1nc(-c2ccc(O)cc2)cs1,inactive: 0.343%
9,Cc1ccc(S(=O)(=O)Nc2ccc3c(c2)C(=O)N([C@H](C)CO)C[C@@H](C)[C@@H](CN(C)C(=O)Nc2cccc4ccccc24)O3)cc1,inactive: 0.0856%
10,Cc1cc(N/N=C/c2ccc(O)cc2O)nc(-n2nc(C)cc2C)n1,inactive: 0.372%
11,CCOc1cc(/C=C\c2[nH]c(=O)[nH]c(=O)c2[N+](=O)[O-])ccc1OC(C)CC (stereo not given),inactive: -2.06%
12,C#CCOCCOCCOCCNc1nc(N2CCOCC2)nc(N2CCN(C(=O)[C@H](Cc3cc4ccccc4[nH]3)n3cc([C@@H](N)CC(C)C)nn3)CC2)n1,inactive: 0.976%
13,Oc1cccc(/C=N/NC(=S)NCCN2CCOCC2)c1O,inactive: 0.249%
14,Cn1c(=O)c2[nH]c(N3CCN(c4cccc(O)c4)CC3)nc2n(C)c1=O,inactive: -0.157%
15,CCOC(=O)N1CCC2(CC1)C(C#N)=C(N)OC1=C2C(=O)CC(C)(C)C1,inactive: 0.294%
16,CCOC(=O)c1cc2nc(Nc3ccc(OC)cc3)sc2s1,inactive: 0.48%
17,NCc1nc(-c2ccc(Cl)cc2)no1,inactive: -0.361%
18,O=C(CSc1nnc(CNC(=O)c2ccccc2F)o1)NCCc1ccccc1,inactive: 0.0457%
19,CCN(C[C@H]1N[C@@](CC)(C(=O)OC)[C@H]2C(=O)N(C)C(=O)[C@@H]12)S(=O)(=O)c1ccc(C(F)(F)F)cc1,inactive: 0.062%
20,O=C(NCCCNCCCNC(=O)c1ccc(/C=N/O)nc1)c1ccc(/C=N/O)nc1,inactive: 0.197%
21,CCc1ccc([C@@H]2CC=C(C(=O)O)[C@H](c3ccc(C(C)(C)C)cc3)N2S(=O)(=O)c2ccc(C)cc2)cc1,inactive: 0.486%
22,O=[N+]([O-])c1ccccc1NCc1ccc(Cl)cc1,inactive: 0.398%

row,Structure (SMILES),"activity change, negative = inhibition"
1,COC(=O)[C@]1(C)N[C@H](CN(C)C(=O)Nc2ccccc2)[C@@H]2C(=O)N(Cc3ccccc3)C(=O)[C@@H]21,inactive: 0.459%
2,C[C@H](CO)N1C[C@H](C)[C@@H](CN(C)S(C)(=O)=O)Oc2ccc(N(C)C)cc2C1=O,inactive: 0.057%
3,COc1ccc(-n2cc(CNCCc3cscn3)c(-c3ccccc3Cl)n2)cc1,inactive: 0.131%
4,Cc1ccccc1NC(=S)c1nc2ccccc2[nH]1,inactive: -0.36%
5,O=C(Nc1ccc(Cl)c(C(F)(F)F)c1)NC1CC2CCCC(C1)N2Cc1ccccc1 (stereo not given),inactive: 1.15%
6,CC(=O)N1CCc2cc(S(=O)(=O)NC(CC(C)C)C(=O)Nc3cc(C(=O)O)ccc3C)ccc21 (stereo not given),inactive: 0.617%
7,NC(=O)NC(=O)CSc1nnc(-c2ccco2)n1Cc1ccccc1,inactive: 0.0902%
8,O=C1/C(=C/c2cccs2)COc2ccccc21,inactive: 0.625%
9,CNC[C@@H]1Oc2c(NC(=O)Nc3ccccc3)cccc2C(=O)N([C@@H](C)CO)C[C@H]1C,inactive: 0.196%
10,COc1ccc(/C=N/n2c(=O)[nH]c3c([nH]c4ccc(Br)cc43)c2=O)cc1CN1CCOCC1,inactive: 0.399%
11,CCOc1ccc(N2CC(C(=O)Nc3nnc(Cc4ccc(OC)cc4)s3)CC2=O)cc1 (stereo not given),inactive: 0.166%
12,CCOC(=O)c1csc(N/N=C2\CCc3ccccc32)n1,inactive: 0.158%
13,CNC(=O)c1sccc1-n1cccc1,inactive: 0.0853%
14,OC1(c2cccc(F)c2)CCN(Cc2ccncc2)CC1,inactive: 0.341%
15,CCCC(=O)Nc1ccc(Oc2ccc(NC(=O)CCC)cc2)cc1,inactive: 0.3%
16,Cc1cccc(N2CCN(C(=O)c3ccc(CS(=O)(=O)c4ccccc4C)o3)CC2C)c1 (stereo not given),inactive: -0.0775%
17,Cc1cccc(OCCCn2c(=O)oc3ccc(C)cc32)c1,inactive: -0.266%
18,COc1ccc(C2CC(c3cccs3)=NN2S(=O)(=O)c2ccc(C)cc2)cc1 (stereo not given),inactive: 0.501%
19,Cc1noc(C)c1S(=O)(=O)N(C)C[C@H]1Oc2c(cccc2N(C)C)C(=O)N([C@H](C)CO)C[C@@H]1C,inactive: -0.198%
20,c1ccc2c(c1)ccc1nnc(-c3ccc4c(c3)OCO4)n12,inactive: 0.283%
21,O=C(Nc1ccccc1C(=O)N1CCOCC1)c1noc2c1CCCC2,inactive: 0.794%
22,O=C(Nc1nnc(CCS(=O)(=O)c2ccc3ccccc3c2)s1)c1cccs1,inactive: -1.14%

# As a working copy, part of the list above.
row,Structure (SMILES),"activity change, negative = inhibition"
1,COC(=O)[C@]1(C)N[C@H](CN(C)C(=O)Nc2ccccc2)[C@@H]2C(=O)N(Cc3ccccc3)C(=O)[C@@H]21,inactive: 0.459%
2,C[C@H](CO)N1C[C@H](C)[C@@H](CN(C)S(C)(=O)=O)Oc2ccc(N(C)C)cc2C1=O,inactive: 0.057%
3,COc1ccc(-n2cc(CNCCc3cscn3)c(-c3ccccc3Cl)n2)cc1,inactive: 0.131%
4,Cc1ccccc1NC(=S)c1nc2ccccc2[nH]1,inactive: -0.36%
5,O=C(Nc1ccc(Cl)c(C(F)(F)F)c1)NC1CC2CCCC(C1)N2Cc1ccccc1 (stereo not given),inactive: 1.15%
6,CC(=O)N1CCc2cc(S(=O)(=O)NC(CC(C)C)C(=O)Nc3cc(C(=O)O)ccc3C)ccc21 (stereo not given),inactive: 0.617%
7,NC(=O)NC(=O)CSc1nnc(-c2ccco2)n1Cc1ccccc1,inactive: 0.0902%
8,O=C1/C(=C/c2cccs2)COc2ccccc21,inactive: 0.625%
9,CNC[C@@H]1Oc2c(NC(=O)Nc3ccccc3)cccc2C(=O)N([C@@H](C)CO)C[C@H]1C,inactive: 0.196%
10,COc1ccc(/C=N/n2c(=O)[nH]c3c([nH]c4ccc(Br)cc43)c2=O)cc1CN1CCOCC1,inactive: 0.399%
11,CCOc1ccc(N2CC(C(=O)Nc3nnc(Cc4ccc(OC)cc4)s3)CC2=O)cc1 (stereo not given),inactive: 0.166%
12,CCOC(=O)c1csc(N/N=C2\CCc3ccccc32)n1,inactive: 0.158%
13,CNC(=O)c1sccc1-n1cccc1,inactive: 0.0853%
14,OC1(c2cccc(F)c2)CCN(Cc2ccncc2)CC1,inactive: 0.341%
15,CCCC(=O)Nc1ccc(Oc2ccc(NC(=O)CCC)cc2)cc1,inactive: 0.3%
16,Cc1cccc(N2CCN(C(=O)c3ccc(CS(=O)(=O)c4ccccc4C)o3)CC2C)c1 (stereo not given),inactive: -0.0775%
17,Cc1cccc(OCCCn2c(=O)oc3ccc(C)cc32)c1,inactive: -0.266%
18,COc1ccc(C2CC(c3cccs3)=NN2S(=O)(=O)c2ccc(C)cc2)cc1 (stereo not given),inactive: 0.501%
19,Cc1noc(C)c1S(=O)(=O)N(C)C[C@H]1Oc2c(cccc2N(C)C)C(=O)N([C@H](C)CO)C[C@@H]1C,inactive: -0.198%

# Later entries:

row,Structure (SMILES),"activity change, negative = inhibition"
1,O=C(c1ccc(Cn2cc([N+](=O)[O-])cn2)o1)N1CCCCCC1,inactive: 0.287%
2,CC1=C(C(=O)OC(C)C)C(c2ccccc2)NC(=S)N1C (stereo not given),inactive: -0.136%
3,CCOC(=O)c1sc(NC(=O)CSc2nnc(-c3ccc(OC)cc3)n2CCOC)nc1C,inactive: 0.362%
4,COc1ccc(-c2nn(-c3ccccc3)cc2CNC(C)Cn2cncn2)c(F)c1 (stereo not given),inactive: 0.563%
5,CC(=O)c1c(C(C)=O)c(C)n(-c2nc(-c3cccs3)c(C)s2)c1C,inactive: -0.518%
6,O=C(CCc1ccc(S(=O)(=O)NCc2ccccc2)cc1)NCc1ccc2c(c1)OCO2,inactive: -0.263%
7,CSc1nc(N)nc2c1ncn2CC(=O)N[C@H](C)c1cccc2ccccc12,inactive: -0.21%
8,CCOc1ccc(C(=O)Nc2nnc(C(C)C)s2)cc1OCC,inactive: 0.274%
9,C[C@H]1CN(CCc2ccccc2)C(=O)[C@@H]1CC(=O)NCc1ccccc1,inactive: -0.42%
10,CC(C)(C)c1ccc(S(=O)(=O)/N=C2\C=C(NS(=O)(=O)c3ccccc3)C(=O)c3ccccc32)cc1,inactive: 1.13%
11,CCC(C)(C(=O)NC1CCCC1)N(Cc1cccs1)C(C)=O (stereo not given),inactive: -0.798%
12,Cc1[nH]n2c(=O)c3c(nc2c1-c1ccccc1)CCCC3,inactive: 0.301%
13,COc1ccccc1/C=C/C(=O)Nc1ccc(N2CCOCC2)cc1,inactive: 0.497%
14,C[C@H]1CN([C@@H](C)CO)C(=O)c2cc(NS(=O)(=O)c3ccc(Cl)cc3)ccc2O[C@@H]1CN(C)CC1CCCCC1,inactive: -0.516%
15,CC(C)(C)NNC(=S)Nc1cccc(C(F)(F)F)c1,inactive: 0.248%
16,CC[C@H]1CCCCc2ccccc2[C@@H](C(=O)C[C@@H](O)CC(C)=O)OC1=O,inactive: 1.23%
17,COCCCNC(=S)NNC(=O)c1ccccn1,inactive: 0.84%
18,Cc1cc(C)n(-c2nnc(C)n2/N=C/c2ccco2)n1,inactive: 0.301%
19,Cc1ccc(-c2csc(NC(=O)CSc3nc(C)cc(=O)[nH]3)n2)cc1,inactive: 0.147%
20,O=Cc1ccc(C(=O)OCC(=O)Nc2ccc(F)cc2F)cc1,inactive: 0.111%
21,O=C(CC1NC(=O)NC1=O)Nc1ccccc1 (stereo not given),inactive: -0.843%
22,O=C(NC1CCCc2ccccc21)c1ccc(Br)cc1 (stereo not given),inactive: 0.261%

row,Structure (SMILES),"activity change, negative = inhibition"
1,C#CCOCCOCCOCCNc1nc(N2CCN(C(=O)CCCCCCCCCCNC(=O)[C@H](CCCCN)n3cc(CCO)nn3)CC2)nc(N2CCN(C(=O)CCCCCCCCCCNC(=O)[C@H](CCCCN)n3cc(C[C@@H](C)CC)nn3)CC2)n1,inactive: 0.584%
2,CCCN1C(=O)c2ccc(C(=O)Nc3cc(C)ccc3O)cc2C1=O,inactive: 0.175%
3,COc1ccc(C2/C(=C(/O)c3ccccc3)C(=O)C(=O)N2CCN2CCOCC2)c(OC)c1 (stereo not given),inactive: -0.789%
4,COC(=O)c1sc(S(=O)(=O)NCc2ccccc2)c(C(=O)OC)c1C,inactive: -0.0892%
5,O=C(c1ccncc1)N1N=C(C2CCCCC2)CC1(O)C(F)(F)F (stereo not given),inactive: 0.32%
6,Cc1ccc(NC(=O)CSc2ncccn2)c([N+](=O)[O-])c1,inactive: 0.338%
7,COc1ccc(NC(=O)N(C)C[C@H]2Oc3c(NC(=O)C4CCCCC4)cccc3C(=O)N([C@H](C)CO)C[C@@H]2C)cc1,inactive: 0.0572%
8,CCOc1ccc(CN2CCN(Cc3nc(C(C)C)cs3)CC2CCO)cc1 (stereo not given),inactive: -0.334%
9,COc1ccc(CN(Cc2nc3ccccc3c(=O)[nH]2)C(=O)NC2CCCCC2)cc1,inactive: 1.48%
10,CCCCCC1CC(=O)N(Cc2ccccc2)C(=O)N1 (stereo not given),inactive: 0.0846%
11,N=c1nc(-c2ccccc2)ccn1O,inactive: -0.505%
12,c1ccc(-c2ccccc2OCCN2CCCC2)cc1,inactive: -0.955%
13,CN1CCN(Cc2c(C#N)c3ccccc3n2C)CC1,inactive: -0.48%
14,COc1ccc(C2C(C#N)=C(N)Oc3c2sc2nc(C)cc(C)c32)cc1 (stereo not given),inactive: -0.587%
15,CSc1ccccc1C(=O)Nc1ccc(C)c(C)c1,inactive: -0.311%
16,O=C(Nc1ccccc1)N(O)c1ccc(Cl)cc1,inactive: -0.0344%
17,CC(=O)Nc1ccc(NC(=O)C2CCN(C(=O)c3cccs3)CC2)cc1,inactive: 1.22%
18,C[C@H](CO)N1C[C@H](C)[C@@H](CN(C)S(=O)(=O)c2ccccc2)Oc2ccc(NS(=O)(=O)c3ccc(F)cc3)cc2C1=O,inactive: 0.496%
19,CS(=O)(=O)N(CC(=O)N1CCCCCC1)c1ccccc1,inactive: 0.237%
